Results are given in words; binding and its absence hold for the method and conditions named. In cells and extracts the contact can be indirect. Some binding calls cover weakened binding; strength is not graded here.
Biological target: Escherichia coli MinC (EcoMinC) (Escherichia coli) (UniProt P18196)
Assay: cross-linking; chemical crosslinking of EcoMinC at a high concentration; data not shown

B1: Escherichia coli MinC (EcoMinC) (protein, UniProt P18196 1-231)
chain: MSNTPIELKGSSFTLSVVHLHEAEPKVIHQALEDKIAQAPAFLKHAPVVLNVSALEDPVNWSAMHKAVSATGLRVIGVSGCKDAQLKAEIEKMGLPILTEGKEKAPRPAPTPQAPAQNTTPVTKTRLIDTPVRSGQRIYAPQCDLIVTSHVSAGAELIADGNIHVYGMMRGRALAGASGDRETQIFCTNLMAELVSIAGEYWLSDQIPAEFYGKAARLQLVENALTVQPLN
  binding: binds
